These are yes or no findings as the source states them, for the method shown. In cells and extracts the contact can be indirect. Some results given as binding are weak or reduced against the parent protein; the word gives no strength. For part of these data: Where a sequence is shown, tags or fusion partners need not be part of it.
What was measured:
[1] = target: T1, Tudor-SN, endogenous in mouse myocardia (mouse (endogenous in myocardia)) (UniProt Q78PY7); experiment: co-IP; lysates of P1 mouse myocardia (WT, TG, Tudor-SN fl/fl, Myh6-Tudor-SN -/-); anti-Tudor-SN or anti-YAP antibody on protein A/G agarose, NP-40 lysis buffer with 150 mM NaCl, 2 mM EDTA, 50 mM Tris-HCl pH 8.0; western blot
T1 sequence: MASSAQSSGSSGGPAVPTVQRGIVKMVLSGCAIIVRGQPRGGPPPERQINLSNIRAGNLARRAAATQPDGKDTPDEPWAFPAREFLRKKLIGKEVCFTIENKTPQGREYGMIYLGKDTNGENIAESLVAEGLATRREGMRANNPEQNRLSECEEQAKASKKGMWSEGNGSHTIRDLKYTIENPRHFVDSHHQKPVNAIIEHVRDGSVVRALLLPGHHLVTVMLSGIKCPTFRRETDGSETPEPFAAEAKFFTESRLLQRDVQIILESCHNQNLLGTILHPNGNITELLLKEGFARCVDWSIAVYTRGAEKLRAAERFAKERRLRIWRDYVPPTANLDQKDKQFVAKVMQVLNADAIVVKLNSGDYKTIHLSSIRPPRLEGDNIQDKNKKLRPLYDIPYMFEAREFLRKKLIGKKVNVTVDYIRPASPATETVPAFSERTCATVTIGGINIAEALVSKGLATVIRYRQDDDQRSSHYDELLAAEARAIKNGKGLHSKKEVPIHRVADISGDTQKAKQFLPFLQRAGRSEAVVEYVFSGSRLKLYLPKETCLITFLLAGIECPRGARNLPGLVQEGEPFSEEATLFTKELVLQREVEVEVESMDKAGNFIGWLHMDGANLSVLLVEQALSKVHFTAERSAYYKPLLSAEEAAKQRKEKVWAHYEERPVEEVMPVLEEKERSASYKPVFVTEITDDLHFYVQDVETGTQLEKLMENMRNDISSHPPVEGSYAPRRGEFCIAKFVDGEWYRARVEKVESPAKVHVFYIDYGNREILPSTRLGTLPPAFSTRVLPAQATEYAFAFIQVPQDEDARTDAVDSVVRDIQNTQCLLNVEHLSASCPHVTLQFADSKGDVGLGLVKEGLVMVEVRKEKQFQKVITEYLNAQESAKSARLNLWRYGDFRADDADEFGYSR

The chains behind the UniProt entries cited, without tags or fusion partners.
UniProt P46938: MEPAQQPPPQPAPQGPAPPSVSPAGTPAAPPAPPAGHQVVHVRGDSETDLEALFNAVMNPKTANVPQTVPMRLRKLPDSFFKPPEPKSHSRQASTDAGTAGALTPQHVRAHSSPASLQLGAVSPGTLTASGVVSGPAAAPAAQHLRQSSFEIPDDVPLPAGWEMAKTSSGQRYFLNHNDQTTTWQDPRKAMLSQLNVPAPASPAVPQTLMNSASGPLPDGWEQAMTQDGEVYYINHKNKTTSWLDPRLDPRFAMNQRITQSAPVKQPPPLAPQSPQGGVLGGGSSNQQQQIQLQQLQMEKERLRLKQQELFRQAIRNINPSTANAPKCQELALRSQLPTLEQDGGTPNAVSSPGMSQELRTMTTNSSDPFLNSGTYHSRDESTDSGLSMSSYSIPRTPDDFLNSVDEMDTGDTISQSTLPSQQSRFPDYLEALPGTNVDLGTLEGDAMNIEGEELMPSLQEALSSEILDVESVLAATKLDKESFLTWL
UniProt Q2EJA0: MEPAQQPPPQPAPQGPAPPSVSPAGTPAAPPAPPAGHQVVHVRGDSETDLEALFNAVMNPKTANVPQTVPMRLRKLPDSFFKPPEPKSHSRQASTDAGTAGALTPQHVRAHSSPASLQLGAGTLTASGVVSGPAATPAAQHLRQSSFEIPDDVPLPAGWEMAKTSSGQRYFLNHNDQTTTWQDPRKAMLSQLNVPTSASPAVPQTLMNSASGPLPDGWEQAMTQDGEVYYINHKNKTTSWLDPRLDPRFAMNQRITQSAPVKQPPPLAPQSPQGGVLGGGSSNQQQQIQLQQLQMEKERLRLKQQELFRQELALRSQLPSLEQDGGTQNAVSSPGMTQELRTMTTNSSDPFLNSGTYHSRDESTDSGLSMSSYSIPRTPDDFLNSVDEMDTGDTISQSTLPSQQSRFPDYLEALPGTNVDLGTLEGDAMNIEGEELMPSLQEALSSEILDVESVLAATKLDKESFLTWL

[2] = target: T2, Flag-Tudor-SN (Tudor staphylococcal nuclease) (UniProt Q66X93); experiment: co-IP; total lysates of H9c2 cells expressing Flag-Tudor-SN or Flag-YAP, precipitated with anti-Flag beads; western blot for YAP or Tudor-SN
T2 sequence: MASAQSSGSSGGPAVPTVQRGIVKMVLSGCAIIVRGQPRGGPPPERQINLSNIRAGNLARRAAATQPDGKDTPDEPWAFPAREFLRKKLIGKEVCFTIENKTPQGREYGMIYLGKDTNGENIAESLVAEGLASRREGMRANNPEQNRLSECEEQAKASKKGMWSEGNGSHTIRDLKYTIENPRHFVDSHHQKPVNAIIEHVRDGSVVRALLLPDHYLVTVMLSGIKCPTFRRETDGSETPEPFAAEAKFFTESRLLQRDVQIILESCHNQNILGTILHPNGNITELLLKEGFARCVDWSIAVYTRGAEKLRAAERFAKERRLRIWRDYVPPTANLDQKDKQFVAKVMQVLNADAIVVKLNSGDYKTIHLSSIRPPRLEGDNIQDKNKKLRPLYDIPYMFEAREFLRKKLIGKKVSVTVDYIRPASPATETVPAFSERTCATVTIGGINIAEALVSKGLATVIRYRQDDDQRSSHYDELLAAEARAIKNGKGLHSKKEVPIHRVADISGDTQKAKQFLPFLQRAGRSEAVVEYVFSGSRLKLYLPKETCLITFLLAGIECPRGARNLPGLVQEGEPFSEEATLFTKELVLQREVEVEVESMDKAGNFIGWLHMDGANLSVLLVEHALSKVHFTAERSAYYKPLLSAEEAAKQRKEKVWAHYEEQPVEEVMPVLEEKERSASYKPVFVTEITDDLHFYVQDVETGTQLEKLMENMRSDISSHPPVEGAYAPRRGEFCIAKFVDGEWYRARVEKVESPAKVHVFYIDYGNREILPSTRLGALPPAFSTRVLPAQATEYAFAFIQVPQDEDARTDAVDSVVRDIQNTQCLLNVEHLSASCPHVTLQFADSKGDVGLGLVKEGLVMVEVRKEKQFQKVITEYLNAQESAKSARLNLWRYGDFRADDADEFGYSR

[3] = target: T3, GST-Tudor-SN (full-length Tudor-SN) (UniProt Q66X93); experiment: pull-down; GST fusion proteins from E. coli held on glutathione-agarose beads, incubated 12 h with in vitro transcribed/translated product (rabbit reticulocyte lysate); western blot; only the target purified
T3 sequence: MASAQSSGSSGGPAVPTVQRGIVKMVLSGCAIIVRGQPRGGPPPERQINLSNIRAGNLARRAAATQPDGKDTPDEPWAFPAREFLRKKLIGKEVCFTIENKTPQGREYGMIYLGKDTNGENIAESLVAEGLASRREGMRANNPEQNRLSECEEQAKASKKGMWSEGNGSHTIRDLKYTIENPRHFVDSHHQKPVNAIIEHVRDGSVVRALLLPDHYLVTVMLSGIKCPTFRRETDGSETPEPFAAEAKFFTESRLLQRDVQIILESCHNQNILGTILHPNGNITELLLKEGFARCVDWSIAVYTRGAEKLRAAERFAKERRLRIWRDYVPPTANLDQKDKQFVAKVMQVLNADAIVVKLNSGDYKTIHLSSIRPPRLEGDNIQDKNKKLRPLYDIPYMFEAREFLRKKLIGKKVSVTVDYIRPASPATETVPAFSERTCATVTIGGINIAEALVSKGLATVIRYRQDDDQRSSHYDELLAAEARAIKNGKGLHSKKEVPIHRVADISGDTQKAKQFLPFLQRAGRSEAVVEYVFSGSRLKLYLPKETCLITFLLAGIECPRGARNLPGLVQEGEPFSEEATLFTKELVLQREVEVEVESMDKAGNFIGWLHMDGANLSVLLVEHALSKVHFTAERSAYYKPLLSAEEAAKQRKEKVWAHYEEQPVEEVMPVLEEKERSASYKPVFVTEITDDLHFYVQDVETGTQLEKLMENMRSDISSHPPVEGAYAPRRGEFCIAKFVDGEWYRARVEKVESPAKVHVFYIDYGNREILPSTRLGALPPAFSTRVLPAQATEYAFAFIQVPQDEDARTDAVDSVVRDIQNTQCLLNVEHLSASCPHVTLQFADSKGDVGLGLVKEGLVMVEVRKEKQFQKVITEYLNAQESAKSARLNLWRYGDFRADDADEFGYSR

[4] = target: Yes-associated protein (YAP), endogenous in mouse myocardia (mouse (endogenous in myocardia)) (UniProt P46938); experiment: co-IP; lysates of P1 mouse myocardia (WT, TG, Tudor-SN fl/fl, Myh6-Tudor-SN -/-); anti-Tudor-SN or anti-YAP antibody on protein A/G agarose, NP-40 lysis buffer with 150 mM NaCl, 2 mM EDTA, 50 mM Tris-HCl pH 8.0; western blot
Flag-YAP = Flag-YAP (UniProt Q2EJA0); experiment: co-IP; total lysates of H9c2 cells expressing Flag-Tudor-SN or Flag-YAP, precipitated with anti-Flag beads; western blot for YAP or Tudor-SN
[5] = target: GST-YAP (full-length YAP) (UniProt Q2EJA0); experiment: pull-down; GST fusion proteins from E. coli held on glutathione-agarose beads, incubated 12 h with in vitro transcribed/translated product (rabbit reticulocyte lysate); western blot; only the target purified

## Yes-associated protein (YAP), endogenous in mouse myocardia (from UniProt P46938 1-488)
[1]
  binding: binds

## Yes-associated protein (YAP), endogenous in H9c2 cells (from UniProt Q2EJA0 1-469)
[2]
  binding: binds

## in vitro-translated YAP (from UniProt Q2EJA0 1-469)
[3]
  binding: binds

B1: Tudor-SN, endogenous in mouse myocardia (protein, UniProt Q78PY7 1-910)
chain: MASSAQSSGSSGGPAVPTVQRGIVKMVLSGCAIIVRGQPRGGPPPERQINLSNIRAGNLARRAAATQPDGKDTPDEPWAFPAREFLRKKLIGKEVCFTIENKTPQGREYGMIYLGKDTNGENIAESLVAEGLATRREGMRANNPEQNRLSECEEQAKASKKGMWSEGNGSHTIRDLKYTIENPRHFVDSHHQKPVNAIIEHVRDGSVVRALLLPGHHLVTVMLSGIKCPTFRRETDGSETPEPFAAEAKFFTESRLLQRDVQIILESCHNQNLLGTILHPNGNITELLLKEGFARCVDWSIAVYTRGAEKLRAAERFAKERRLRIWRDYVPPTANLDQKDKQFVAKVMQVLNADAIVVKLNSGDYKTIHLSSIRPPRLEGDNIQDKNKKLRPLYDIPYMFEAREFLRKKLIGKKVNVTVDYIRPASPATETVPAFSERTCATVTIGGINIAEALVSKGLATVIRYRQDDDQRSSHYDELLAAEARAIKNGKGLHSKKEVPIHRVADISGDTQKAKQFLPFLQRAGRSEAVVEYVFSGSRLKLYLPKETCLITFLLAGIECPRGARNLPGLVQEGEPFSEEATLFTKELVLQREVEVEVESMDKAGNFIGWLHMDGANLSVLLVEQALSKVHFTAERSAYYKPLLSAEEAAKQRKEKVWAHYEERPVEEVMPVLEEKERSASYKPVFVTEITDDLHFYVQDVETGTQLEKLMENMRNDISSHPPVEGSYAPRRGEFCIAKFVDGEWYRARVEKVESPAKVHVFYIDYGNREILPSTRLGTLPPAFSTRVLPAQATEYAFAFIQVPQDEDARTDAVDSVVRDIQNTQCLLNVEHLSASCPHVTLQFADSKGDVGLGLVKEGLVMVEVRKEKQFQKVITEYLNAQESAKSARLNLWRYGDFRADDADEFGYSR
[4]
  binding: binds

B2: Tudor-SN, endogenous in H9c2 cells (protein, UniProt Q66X93 1-909)
chain: MASAQSSGSSGGPAVPTVQRGIVKMVLSGCAIIVRGQPRGGPPPERQINLSNIRAGNLARRAAATQPDGKDTPDEPWAFPAREFLRKKLIGKEVCFTIENKTPQGREYGMIYLGKDTNGENIAESLVAEGLASRREGMRANNPEQNRLSECEEQAKASKKGMWSEGNGSHTIRDLKYTIENPRHFVDSHHQKPVNAIIEHVRDGSVVRALLLPDHYLVTVMLSGIKCPTFRRETDGSETPEPFAAEAKFFTESRLLQRDVQIILESCHNQNILGTILHPNGNITELLLKEGFARCVDWSIAVYTRGAEKLRAAERFAKERRLRIWRDYVPPTANLDQKDKQFVAKVMQVLNADAIVVKLNSGDYKTIHLSSIRPPRLEGDNIQDKNKKLRPLYDIPYMFEAREFLRKKLIGKKVSVTVDYIRPASPATETVPAFSERTCATVTIGGINIAEALVSKGLATVIRYRQDDDQRSSHYDELLAAEARAIKNGKGLHSKKEVPIHRVADISGDTQKAKQFLPFLQRAGRSEAVVEYVFSGSRLKLYLPKETCLITFLLAGIECPRGARNLPGLVQEGEPFSEEATLFTKELVLQREVEVEVESMDKAGNFIGWLHMDGANLSVLLVEHALSKVHFTAERSAYYKPLLSAEEAAKQRKEKVWAHYEEQPVEEVMPVLEEKERSASYKPVFVTEITDDLHFYVQDVETGTQLEKLMENMRSDISSHPPVEGAYAPRRGEFCIAKFVDGEWYRARVEKVESPAKVHVFYIDYGNREILPSTRLGALPPAFSTRVLPAQATEYAFAFIQVPQDEDARTDAVDSVVRDIQNTQCLLNVEHLSASCPHVTLQFADSKGDVGLGLVKEGLVMVEVRKEKQFQKVITEYLNAQESAKSARLNLWRYGDFRADDADEFGYSR
Flag-YAP
  binding: binds

B3: in vitro-translated Tudor-SN (protein, UniProt Q66X93 1-909)
chain: MASAQSSGSSGGPAVPTVQRGIVKMVLSGCAIIVRGQPRGGPPPERQINLSNIRAGNLARRAAATQPDGKDTPDEPWAFPAREFLRKKLIGKEVCFTIENKTPQGREYGMIYLGKDTNGENIAESLVAEGLASRREGMRANNPEQNRLSECEEQAKASKKGMWSEGNGSHTIRDLKYTIENPRHFVDSHHQKPVNAIIEHVRDGSVVRALLLPDHYLVTVMLSGIKCPTFRRETDGSETPEPFAAEAKFFTESRLLQRDVQIILESCHNQNILGTILHPNGNITELLLKEGFARCVDWSIAVYTRGAEKLRAAERFAKERRLRIWRDYVPPTANLDQKDKQFVAKVMQVLNADAIVVKLNSGDYKTIHLSSIRPPRLEGDNIQDKNKKLRPLYDIPYMFEAREFLRKKLIGKKVSVTVDYIRPASPATETVPAFSERTCATVTIGGINIAEALVSKGLATVIRYRQDDDQRSSHYDELLAAEARAIKNGKGLHSKKEVPIHRVADISGDTQKAKQFLPFLQRAGRSEAVVEYVFSGSRLKLYLPKETCLITFLLAGIECPRGARNLPGLVQEGEPFSEEATLFTKELVLQREVEVEVESMDKAGNFIGWLHMDGANLSVLLVEHALSKVHFTAERSAYYKPLLSAEEAAKQRKEKVWAHYEEQPVEEVMPVLEEKERSASYKPVFVTEITDDLHFYVQDVETGTQLEKLMENMRSDISSHPPVEGAYAPRRGEFCIAKFVDGEWYRARVEKVESPAKVHVFYIDYGNREILPSTRLGALPPAFSTRVLPAQATEYAFAFIQVPQDEDARTDAVDSVVRDIQNTQCLLNVEHLSASCPHVTLQFADSKGDVGLGLVKEGLVMVEVRKEKQFQKVITEYLNAQESAKSARLNLWRYGDFRADDADEFGYSR
[5]
  binding: binds

Source: paper PMC11212424
